PubChem BioAssay AID1259308 – NCATS | 2017

Screen: 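Candidate targets for better recombinant protein yield in mammalian cells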 (primary screen)
System: human HEK293 embryonic kidney cells stably expressing firefly luciferase (HEK-CMV-Luc2-Hygro)
Knock-down reagent: single siRNA against human genes, 0.8 pmol siRNA per well
Timing: 72 h
Detection: 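Reporter luminescence and viable-cell signal on separate replicate plates, given as percent of non-targeting control and median/MAD z-scores, plus per-cell luciferase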
Direction: total luciferase, z-score: higher = more reporter protein produced
Rule for the call: 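An siRNA counts as active if its total luciferase robust z-score exceeds 3; genes with two or more such siRNAs out of three were retested with fresh siRNAs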
Meaning of the calls: active = raised luciferase; inactive = no rise
This is an unselected part of about 59,000 reagents tested. Over the whole deposit, about 1,510 (2.6%) were called active. 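Calls use total luciferase alone and ignore viability, so some active siRNAs may act by altering cell number.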 Reagents against one gene are numbered here. Not all columns of the deposit are shown.

DCAF11 (DDB1 and CUL4 associated factor 11) #1
- total luciferase, z-score: -0.0318
- call: inactive

DCAF11 (DDB1 and CUL4 associated factor 11) #2
- total luciferase, z-score: -0.126
- call: inactive

DCAF11 (DDB1 and CUL4 associated factor 11) #3
- total luciferase, z-score: -0.0797
- call: inactive

MT1E (metallothionein 1E) #1
- total luciferase, z-score: -1.09
- call: inactive

MT1E (metallothionein 1E) #2
- total luciferase, z-score: -2.53
- call: inactive

MT1E (metallothionein 1E) #3
- total luciferase, z-score: -0.809
- call: inactive

DNAH14 (dynein axonemal heavy chain 14) #1
- total luciferase, z-score: 4.42
- call: active

DNAH14 (dynein axonemal heavy chain 14) #2
- total luciferase, z-score: -0.981
- call: inactive

DNAH14 (dynein axonemal heavy chain 14) #3
- total luciferase, z-score: -0.893
- call: inactive

DNAH14 (dynein axonemal heavy chain 14) #4
- total luciferase, z-score: 0.109
- call: inactive

DNAH14 (dynein axonemal heavy chain 14) #5
- total luciferase, z-score: -0.396
- call: inactive

DNAH14 (dynein axonemal heavy chain 14) #6
- total luciferase, z-score: -1.17
- call: inactive

CHRM4 (cholinergic receptor muscarinic 4) #1
- total luciferase, z-score: 1.99
- call: inactive

CHRM4 (cholinergic receptor muscarinic 4) #2
- total luciferase, z-score: 1.48
- call: inactive

CHRM4 (cholinergic receptor muscarinic 4) #3
- total luciferase, z-score: -0.304
- call: inactive

DSTN (destrin, actin depolymerizing factor) #1
- total luciferase, z-score: -1.24
- call: inactive

DSTN (destrin, actin depolymerizing factor) #2
- total luciferase, z-score: 0.797
- call: inactive

DSTN (destrin, actin depolymerizing factor) #3
- total luciferase, z-score: 3.81
- call: active

GLE1 (GLE1 RNA export mediator) #1
- total luciferase, z-score: 1.71
- call: inactive

GLE1 (GLE1 RNA export mediator) #2
- total luciferase, z-score: -0.0908
- call: inactive

GLE1 (GLE1 RNA export mediator) #3
- total luciferase, z-score: -2.31
- call: inactive

PROK1 (prokineticin 1) #1
- total luciferase, z-score: 0.395
- call: inactive

PROK1 (prokineticin 1) #2
- total luciferase, z-score: 0.57
- call: inactive

PROK1 (prokineticin 1) #3
- total luciferase, z-score: -0.484
- call: inactive

PKP1 (plakophilin 1) #1
- total luciferase, z-score: -2.27
- call: inactive

PKP1 (plakophilin 1) #2
- total luciferase, z-score: -2.23
- call: inactive

PKP1 (plakophilin 1) #3
- total luciferase, z-score: 1.57
- call: inactive

RAB40AL (RAB40A like) #1
- total luciferase, z-score: 0.662
- call: inactive

RAB40AL (RAB40A like) #2
- total luciferase, z-score: 1.05
- call: inactive

RAB40AL (RAB40A like) #3
- total luciferase, z-score: 0.344
- call: inactive

NAA60 (N-alpha-acetyltransferase 60, NatF catalytic subunit) #1
- total luciferase, z-score: 0.753
- call: inactive

NAA60 (N-alpha-acetyltransferase 60, NatF catalytic subunit) #2
- total luciferase, z-score: 1.01
- call: inactive

NAA60 (N-alpha-acetyltransferase 60, NatF catalytic subunit) #3
- total luciferase, z-score: -0.737
- call: inactive

4 entries already listed, ordered by “total luciferase, z-score”, high to low.
PKP1 (plakophilin 1) #3
- total luciferase, z-score: 1.57
- call: inactive

PROK1 (prokineticin 1) #3
- total luciferase, z-score: -0.484
- call: inactive

PKP1 (plakophilin 1) #2
- total luciferase, z-score: -2.23
- call: inactive

PKP1 (plakophilin 1) #1
- total luciferase, z-score: -2.27
- call: inactive
